According to the supplement of paper PMC10849652:
This is one part of the list.

The chains behind the UniProt entries cited, without tags or fusion partners. Where a name states a change or a piece, a line headed by the entry shows the natural chain unless it says otherwise.
UniProt Q96IQ9: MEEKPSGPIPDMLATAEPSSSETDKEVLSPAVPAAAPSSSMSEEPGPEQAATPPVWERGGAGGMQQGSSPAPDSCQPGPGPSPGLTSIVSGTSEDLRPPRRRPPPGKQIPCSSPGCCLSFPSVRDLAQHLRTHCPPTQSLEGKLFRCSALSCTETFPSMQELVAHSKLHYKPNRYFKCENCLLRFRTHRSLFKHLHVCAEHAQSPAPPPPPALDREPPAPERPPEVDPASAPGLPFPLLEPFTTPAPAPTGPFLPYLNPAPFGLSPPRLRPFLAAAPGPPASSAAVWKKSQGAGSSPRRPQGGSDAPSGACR
UniProt Q5T7W0: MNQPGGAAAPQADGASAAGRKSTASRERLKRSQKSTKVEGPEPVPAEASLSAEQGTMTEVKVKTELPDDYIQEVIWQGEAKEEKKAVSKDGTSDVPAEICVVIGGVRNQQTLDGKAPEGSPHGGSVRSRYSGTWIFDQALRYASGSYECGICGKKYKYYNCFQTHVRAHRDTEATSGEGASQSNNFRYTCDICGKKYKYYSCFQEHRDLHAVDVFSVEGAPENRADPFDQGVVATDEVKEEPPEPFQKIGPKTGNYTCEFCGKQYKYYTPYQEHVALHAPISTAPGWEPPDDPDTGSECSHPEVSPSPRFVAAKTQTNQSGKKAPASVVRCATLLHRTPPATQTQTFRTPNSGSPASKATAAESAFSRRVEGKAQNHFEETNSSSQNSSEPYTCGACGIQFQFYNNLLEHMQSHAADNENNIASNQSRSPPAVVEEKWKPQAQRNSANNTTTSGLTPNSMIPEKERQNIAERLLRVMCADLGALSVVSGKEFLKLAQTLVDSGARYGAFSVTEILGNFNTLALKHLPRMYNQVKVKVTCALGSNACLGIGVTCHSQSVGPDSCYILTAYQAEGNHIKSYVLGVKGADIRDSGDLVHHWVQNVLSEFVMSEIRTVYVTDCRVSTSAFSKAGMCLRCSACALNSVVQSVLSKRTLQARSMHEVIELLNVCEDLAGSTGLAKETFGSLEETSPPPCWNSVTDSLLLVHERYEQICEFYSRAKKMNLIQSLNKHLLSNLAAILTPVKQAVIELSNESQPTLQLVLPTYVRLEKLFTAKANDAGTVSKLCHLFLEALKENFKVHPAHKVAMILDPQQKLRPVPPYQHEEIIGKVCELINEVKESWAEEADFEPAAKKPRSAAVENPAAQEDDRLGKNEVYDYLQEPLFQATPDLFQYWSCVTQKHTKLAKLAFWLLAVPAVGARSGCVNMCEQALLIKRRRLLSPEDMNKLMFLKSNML
UniProt O95229: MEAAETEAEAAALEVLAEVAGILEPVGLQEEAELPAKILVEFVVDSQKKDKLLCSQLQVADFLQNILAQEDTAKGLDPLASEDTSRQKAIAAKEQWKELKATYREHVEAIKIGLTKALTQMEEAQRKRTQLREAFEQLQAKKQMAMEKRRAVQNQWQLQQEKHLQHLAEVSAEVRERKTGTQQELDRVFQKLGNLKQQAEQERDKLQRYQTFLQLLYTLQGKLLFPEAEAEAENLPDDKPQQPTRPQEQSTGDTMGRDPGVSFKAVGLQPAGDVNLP
UniProt Q9UL40: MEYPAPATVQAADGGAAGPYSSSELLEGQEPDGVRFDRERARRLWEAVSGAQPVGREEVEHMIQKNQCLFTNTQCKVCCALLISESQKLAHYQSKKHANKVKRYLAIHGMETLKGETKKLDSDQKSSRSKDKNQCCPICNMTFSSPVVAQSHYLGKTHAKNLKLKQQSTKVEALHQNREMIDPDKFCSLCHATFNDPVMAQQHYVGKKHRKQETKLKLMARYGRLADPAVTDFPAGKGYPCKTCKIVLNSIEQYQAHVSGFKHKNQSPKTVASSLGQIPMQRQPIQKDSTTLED
UniProt Q9Y3S2: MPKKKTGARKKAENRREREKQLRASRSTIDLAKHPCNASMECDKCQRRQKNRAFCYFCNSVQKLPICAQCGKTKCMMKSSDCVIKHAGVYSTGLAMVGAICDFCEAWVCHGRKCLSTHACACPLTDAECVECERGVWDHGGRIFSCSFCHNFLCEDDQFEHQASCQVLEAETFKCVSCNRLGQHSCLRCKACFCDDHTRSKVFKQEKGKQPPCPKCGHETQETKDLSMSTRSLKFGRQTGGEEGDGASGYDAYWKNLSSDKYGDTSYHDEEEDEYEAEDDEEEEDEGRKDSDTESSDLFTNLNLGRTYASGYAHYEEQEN
UniProt O43264: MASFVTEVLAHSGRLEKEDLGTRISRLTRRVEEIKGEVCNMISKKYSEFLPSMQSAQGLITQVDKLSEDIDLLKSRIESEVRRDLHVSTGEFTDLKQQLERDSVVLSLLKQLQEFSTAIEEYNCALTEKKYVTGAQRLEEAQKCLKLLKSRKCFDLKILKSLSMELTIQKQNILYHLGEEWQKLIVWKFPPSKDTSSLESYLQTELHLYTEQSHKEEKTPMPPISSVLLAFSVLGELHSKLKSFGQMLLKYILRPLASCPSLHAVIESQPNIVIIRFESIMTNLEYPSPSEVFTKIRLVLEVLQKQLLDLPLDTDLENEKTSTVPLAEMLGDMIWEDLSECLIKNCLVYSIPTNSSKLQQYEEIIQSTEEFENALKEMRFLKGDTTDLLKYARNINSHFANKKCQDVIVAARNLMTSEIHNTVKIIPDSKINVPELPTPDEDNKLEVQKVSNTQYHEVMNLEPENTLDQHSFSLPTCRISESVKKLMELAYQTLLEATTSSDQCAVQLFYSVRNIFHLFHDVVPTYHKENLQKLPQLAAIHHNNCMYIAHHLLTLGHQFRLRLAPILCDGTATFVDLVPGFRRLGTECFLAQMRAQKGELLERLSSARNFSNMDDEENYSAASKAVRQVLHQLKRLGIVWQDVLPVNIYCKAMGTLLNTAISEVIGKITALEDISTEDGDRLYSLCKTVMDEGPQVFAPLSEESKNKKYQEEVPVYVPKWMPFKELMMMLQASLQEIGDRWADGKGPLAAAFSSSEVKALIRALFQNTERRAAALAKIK
UniProt Q8ND25: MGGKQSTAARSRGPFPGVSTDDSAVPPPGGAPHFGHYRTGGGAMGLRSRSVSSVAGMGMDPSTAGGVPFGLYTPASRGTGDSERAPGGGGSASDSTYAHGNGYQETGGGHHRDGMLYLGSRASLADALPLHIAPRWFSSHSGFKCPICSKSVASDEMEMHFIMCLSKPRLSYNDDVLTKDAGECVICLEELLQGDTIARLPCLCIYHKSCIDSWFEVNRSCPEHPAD
UniProt Q8NAF0: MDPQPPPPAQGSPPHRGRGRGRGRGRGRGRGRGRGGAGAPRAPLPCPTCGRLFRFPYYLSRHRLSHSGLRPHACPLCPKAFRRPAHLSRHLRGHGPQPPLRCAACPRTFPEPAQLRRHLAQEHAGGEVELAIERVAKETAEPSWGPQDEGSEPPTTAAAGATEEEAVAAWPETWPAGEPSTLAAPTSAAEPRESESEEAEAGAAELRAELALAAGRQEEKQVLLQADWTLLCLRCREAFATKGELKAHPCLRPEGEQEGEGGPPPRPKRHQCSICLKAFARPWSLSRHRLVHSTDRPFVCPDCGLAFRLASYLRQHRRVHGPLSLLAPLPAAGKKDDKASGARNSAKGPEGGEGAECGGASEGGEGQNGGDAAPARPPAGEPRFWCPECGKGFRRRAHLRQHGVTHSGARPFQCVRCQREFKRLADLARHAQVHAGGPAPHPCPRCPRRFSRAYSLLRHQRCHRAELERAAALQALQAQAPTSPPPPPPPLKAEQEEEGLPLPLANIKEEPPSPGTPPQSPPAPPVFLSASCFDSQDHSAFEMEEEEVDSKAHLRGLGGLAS
UniProt Q9Y5V0: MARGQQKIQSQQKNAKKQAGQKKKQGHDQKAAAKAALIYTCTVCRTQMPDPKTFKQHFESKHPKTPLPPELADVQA
UniProt Q19AV6: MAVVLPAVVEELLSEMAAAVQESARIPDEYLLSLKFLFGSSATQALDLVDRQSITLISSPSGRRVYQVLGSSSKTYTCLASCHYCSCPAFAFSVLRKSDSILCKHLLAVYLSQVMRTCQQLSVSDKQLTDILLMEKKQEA
UniProt Q9BTE6: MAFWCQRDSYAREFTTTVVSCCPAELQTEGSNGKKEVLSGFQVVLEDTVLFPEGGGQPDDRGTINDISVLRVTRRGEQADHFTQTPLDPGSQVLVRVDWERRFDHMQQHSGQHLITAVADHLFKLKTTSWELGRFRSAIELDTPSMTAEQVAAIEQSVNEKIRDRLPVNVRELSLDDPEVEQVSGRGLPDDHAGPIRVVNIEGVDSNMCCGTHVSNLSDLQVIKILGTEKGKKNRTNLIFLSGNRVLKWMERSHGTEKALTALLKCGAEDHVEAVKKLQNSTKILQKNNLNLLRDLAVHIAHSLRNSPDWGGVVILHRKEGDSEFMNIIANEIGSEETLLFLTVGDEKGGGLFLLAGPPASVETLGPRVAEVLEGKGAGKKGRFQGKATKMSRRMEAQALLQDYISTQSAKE
UniProt Q9P0T4: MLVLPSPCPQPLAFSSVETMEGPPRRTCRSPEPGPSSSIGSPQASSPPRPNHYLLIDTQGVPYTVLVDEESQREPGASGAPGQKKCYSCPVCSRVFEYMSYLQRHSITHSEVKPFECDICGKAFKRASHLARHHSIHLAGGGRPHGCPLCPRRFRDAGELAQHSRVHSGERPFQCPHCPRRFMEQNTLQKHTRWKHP
UniProt O75027: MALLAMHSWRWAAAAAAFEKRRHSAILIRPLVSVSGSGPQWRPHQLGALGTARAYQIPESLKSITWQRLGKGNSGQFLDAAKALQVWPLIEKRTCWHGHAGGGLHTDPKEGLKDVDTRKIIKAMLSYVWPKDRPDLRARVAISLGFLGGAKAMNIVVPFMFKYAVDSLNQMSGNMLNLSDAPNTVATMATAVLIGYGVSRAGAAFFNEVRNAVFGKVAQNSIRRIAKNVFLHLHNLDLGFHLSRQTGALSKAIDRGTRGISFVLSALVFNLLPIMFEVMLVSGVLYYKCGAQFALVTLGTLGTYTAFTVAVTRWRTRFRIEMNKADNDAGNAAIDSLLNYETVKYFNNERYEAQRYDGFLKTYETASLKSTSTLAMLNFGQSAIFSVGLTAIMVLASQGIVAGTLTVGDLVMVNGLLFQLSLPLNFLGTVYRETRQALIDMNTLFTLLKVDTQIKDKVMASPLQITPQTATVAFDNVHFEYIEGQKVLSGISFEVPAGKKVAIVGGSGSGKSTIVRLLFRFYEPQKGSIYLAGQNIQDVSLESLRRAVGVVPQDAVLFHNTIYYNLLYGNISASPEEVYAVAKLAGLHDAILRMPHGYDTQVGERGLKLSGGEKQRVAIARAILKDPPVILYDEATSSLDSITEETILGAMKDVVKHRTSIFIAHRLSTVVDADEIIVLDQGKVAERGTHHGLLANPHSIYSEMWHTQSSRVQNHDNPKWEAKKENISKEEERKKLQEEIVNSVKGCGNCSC
UniProt Q96ME7: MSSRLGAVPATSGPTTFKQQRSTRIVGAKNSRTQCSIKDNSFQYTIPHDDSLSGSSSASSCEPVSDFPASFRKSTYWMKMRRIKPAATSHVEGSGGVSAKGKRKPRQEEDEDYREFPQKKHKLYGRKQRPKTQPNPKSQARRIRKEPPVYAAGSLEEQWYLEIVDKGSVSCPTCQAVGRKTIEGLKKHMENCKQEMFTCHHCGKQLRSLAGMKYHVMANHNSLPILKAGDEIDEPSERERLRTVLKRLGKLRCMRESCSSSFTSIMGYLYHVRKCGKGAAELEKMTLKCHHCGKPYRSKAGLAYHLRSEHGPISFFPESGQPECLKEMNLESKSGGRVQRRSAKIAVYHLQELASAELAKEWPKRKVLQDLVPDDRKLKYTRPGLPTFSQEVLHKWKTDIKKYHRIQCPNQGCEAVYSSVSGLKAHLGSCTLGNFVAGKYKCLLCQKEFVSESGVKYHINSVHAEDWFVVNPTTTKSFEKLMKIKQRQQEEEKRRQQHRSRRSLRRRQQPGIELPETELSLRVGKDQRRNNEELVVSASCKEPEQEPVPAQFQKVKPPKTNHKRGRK
UniProt P22303: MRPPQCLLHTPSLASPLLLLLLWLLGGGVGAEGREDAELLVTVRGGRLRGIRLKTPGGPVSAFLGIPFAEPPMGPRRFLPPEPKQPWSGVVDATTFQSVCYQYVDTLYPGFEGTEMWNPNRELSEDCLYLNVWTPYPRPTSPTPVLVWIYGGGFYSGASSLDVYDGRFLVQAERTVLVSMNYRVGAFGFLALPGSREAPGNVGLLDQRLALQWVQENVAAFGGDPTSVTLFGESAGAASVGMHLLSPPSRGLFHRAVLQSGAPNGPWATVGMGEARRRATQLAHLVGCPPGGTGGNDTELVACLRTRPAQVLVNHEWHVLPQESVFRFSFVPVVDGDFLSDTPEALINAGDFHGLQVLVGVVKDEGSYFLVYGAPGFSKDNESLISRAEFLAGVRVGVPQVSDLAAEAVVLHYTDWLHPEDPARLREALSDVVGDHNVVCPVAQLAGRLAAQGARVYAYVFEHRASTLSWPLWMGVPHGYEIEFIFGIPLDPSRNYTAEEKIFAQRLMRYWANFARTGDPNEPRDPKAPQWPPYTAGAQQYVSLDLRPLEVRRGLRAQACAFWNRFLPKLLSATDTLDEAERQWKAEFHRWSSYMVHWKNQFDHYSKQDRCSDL

Tests used:
[1] = compound: C1=CC=C(C=C1)[C@H](COC2=CC3=C(C=C2)NC(=O)N3)NC(=O)C4=CC=CN(C4=O)CC5=CC(=C(C=C5)F)F; test: log2 fold change, soluble protein after heating vs DMSO (PISA); higher = thermal stabilisation; K562 cells, 10 uM, 30 min; active = over 0.2 and 3.5 SD of the protein, either way, in both replicates (recomputed)
Procedure, shortened: (§1)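 Thermal stability values are relative to control samples and come from duplicates. They are expressed as log2 fold changes. For measurement, K562 cells (2×10^6 cells/mL) received 10 μM compound for 30 min, and aliquots were heated for 3 min over 48°C-58°C, pooled, and extracted at 4°C in PBS with 0.5% NP-40. Soluble protein, the supernatant after 21,000xg for 90 min, was quantified by TMTpro 16plex LC-MS/MS with equalised channel sums.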

[2] = compound: CC1=C(SC2=C1C(=N[C@H](C3=NN=C(N32)C)CC(=O)N)C4=CC=C(C=C4)Cl)C; test: as above
Procedure, shortened: as §1

[3] = compound: CC1=C2C(=CC=C1)N=C(N(C2=O)C3=CC=CC=C3C)CN4C=NC5=C(N=CN=C54)N; test: as above
Procedure, shortened: as §1

[4] = compound: c1ccc([C@@H]2C[C@H]2NC2CCNCC2)cc1; test: as above
Procedure, shortened: as §1

[5] = compound: Cc1sc2c(c1C)C(c1ccc(Cl)cc1)=N[C@@H](CC(=O)OC(C)(C)C)c1nnc(C)n1-2; test: as above
Procedure, shortened: as §1

[6] = compound: C1=CC=C(C=C1)[C@H](COC2=CC3=C(C=C2)NC(=O)N3)NC(=O)C4=CC=CN(C4=O)CC5=CC(=C(C=C5)F)F; test: log2 fold change, soluble protein after heating vs DMSO (PISA); higher = thermal stabilisation; K562 lysate, 10 uM; active = over 0.2 and 3.5 SD of the protein, either way, in both replicates (recomputed)
Procedure, shortened: (§2)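 Thermal stability, expressed as log-two fold change relative to solvent controls, is given from duplicates. Crude K562 extract in PBS pH 7.4 with 1 mM MgCl2, at 1 mg/mL protein, was treated with 10 μM compound for 30 min and heated in aliquots for 3 min across 48°C-58°C. After pooling, adjustment to 0.5% NP-40 at 4°C and centrifugation at 21,000xg for 90 min, supernatant protein was measured by TMTpro 16plex LC-MS/MS with channel sums equalised.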

[7] = compound: CC1=C(SC2=C1C(=N[C@H](C3=NN=C(N32)C)CC(=O)N)C4=CC=C(C=C4)Cl)C; test: as above
Procedure, shortened: as §2

[8] = compound: CC1=C2C(=CC=C1)N=C(N(C2=O)C3=CC=CC=C3C)CN4C=NC5=C(N=CN=C54)N; test: as above
Procedure, shortened: as §2

[9] = compound: Cc1sc2c(c1C)C(c1ccc(Cl)cc1)=N[C@@H](CC(=O)OC(C)(C)C)c1nnc(C)n1-2; test: as above
Procedure, shortened: as §2

[10] = compound: c1ccc([C@@H]2C[C@H]2NC2CCNCC2)cc1; test: as above
Procedure, shortened: as §2

[11] = compound: C1=CC2=NC=CN=C2C=C1/C=C/3\C(=O)NC(=O)S3; test: as above
Procedure, shortened: as §2

[12] = compound: C=CC(=O)N1CCC[C@@H](n2nc(-c3ccc(Oc4ccccc4)cc3)c3c(N)ncnc32)C1 [ibrutinib]; test: as above
Procedure, shortened: as §2

[13] = compound: CC(=O)c1cnc2ccc(-c3cc(Cl)c(O)c(Cl)c3)nc2c1N[C@H]1CC[C@H](CN(C)C)CC1; test: as above
Procedure, shortened: as §2

[14] = compound: CC1=C(C(CC(=O)N1)C2=CC=C(C=C2)C(F)(F)F)C(=O)NC3=C(C=C4C(=C3)C=NN4)F; test: as above
Procedure, shortened: as §2

[15] = compound: CC1=CC=C(C=C1)SC2=C3C=C(SC3=CN=C2)C(=O)N; test: as above
Procedure, shortened: as §2

[16] = compound: CCCS(=O)(=O)Nc1ccc(F)c(C(=O)c2c[nH]c3ncc(Cl)cc23)c1F; test: as above
Procedure, shortened: as §2

[17] = compound: CCN(CCCOc1ccc2c(Nc3cc(CC(=O)Nc4cccc(F)c4)[nH]n3)ncnc2c1)CCOP(=O)(O)O [barasertib]; test: as above
Procedure, shortened: as §2

[18] = compound: CC[C@@H]1C(=O)N(C)c2cnc(Nc3ccc(C(=O)N[C@H]4CC[C@H](N5CCN(CC6CC6)CC5)CC4)cc3OC)nc2N1C(C)C [volasertib]; test: as above
Procedure, shortened: as §2

[19] = compound: COc1cc(Nc2ncc3c(n2)-c2ccc(Cl)cc2C(c2c(F)cccc2OC)=NC3)ccc1C(=O)O [alisertib]; test: as above
Procedure, shortened: as §2

[20] = compound: COc1cc2nc(-c3cc(F)ccc3O)nc(N[C@@H]3CNC[C@H]3C(C)(C)O)c2cc1OC; test: as above
Procedure, shortened: as §2

[21] = compound: COc1cc2ncnc(Nc3ccc(F)c(Cl)c3)c2cc1OCCCN1CCOCC1 [gefitinib]; test: as above
Procedure, shortened: as §2

[22] = compound: CS(=O)(=O)CCNCc1ccc(-c2ccc3ncnc(Nc4ccc(OCc5cccc(F)c5)c(Cl)c4)c3c2)o1 [lapatinib]; test: as above
Procedure, shortened: as §2

[23] = compound: CS(=O)(=O)N1CCN(Cc2cc3nc(-c4cccc5[nH]ncc45)nc(N4CCOCC4)c3s2)CC1 [pictilisib]; test: as above
Procedure, shortened: as §2

[24] = compound: Cc1ccc(NC(=O)c2ccc(CN3CC[C@H](N(C)C)C3)c(C(F)(F)F)c2)cc1Nc1nccc(-c2cncnc2)n1 [bafetinib]; test: as above
Procedure, shortened: as §2

[25] = compound: Cc1cn(-c2cc(NC(=O)c3ccc(C)c(Nc4nccc(-c5cccnc5)n4)c3)cc(C(F)(F)F)c2)cn1 [nilotinib]; test: as above
Procedure, shortened: as §2

[26] = compound: Cc1nc(Nc2n[nH]c3c2CN(C(=O)N[C@H](CN(C)C)c2ccccc2)C3(C)C)c2sccc2n1; test: as above
Procedure, shortened: as §2

[27] = compound: Cc1ncc(-c2ccnc(Nc3ccc(S(C)(=O)=O)cc3)n2)n1C(C)C; test: as above
Procedure, shortened: as §2

[28] = compound: Cn1cncc1[C@@](N)(c1ccc(Cl)cc1)c1ccc2c(c1)c(-c1cccc(Cl)c1)cc(=O)n2C [tipifarnib]; test: as above
Procedure, shortened: as §2

[29] = compound: NC(=O)c1cnc(N[C@@H]2CCCC[C@@H]2N)nc1Nc1cccc(-n2nccn2)c1; test: as above
Procedure, shortened: as §2

Measured: log2 fold change

ZNF414 isoform 2 (UniProt Q96IQ9)
inactive: [1] 0.09 | [2] -0.123 | [3] -0.198 | [4] 0.314

ZNF618 (UniProt Q5T7W0)
inactive: [1] 0.06 | [2] 0.042 | [3] 0.078 | [5] 0.011 | [4] -0.052

ZWINT (UniProt O95229)
inactive: [1] -0.011 | [2] -0.005 | [3] 0.079 | [5] -0.003 | [4] 0.015

ZNF346 (UniProt Q9UL40)
inactive: [1] 0.045 | [2] -0.066 | [3] -0.099 | [5] 0.079 | [4] 0.019

ZNF330 (UniProt Q9Y3S2)
inactive: [1] -0.03 | [2] -0.067 | [3] 0.004 | [5] 0.018 | [4] 0.006

ZW10 (UniProt O43264)
inactive: [1] -0.044 | [2] 0.044 | [3] 0.018 | [5] -0.004 | [4] 0

ZNRF1 isoform 2 (UniProt Q8ND25)
inactive: [1] -0.028 | [2] 0.053 | [3] -0.017 | [5] -0.028 | [4] -0.078

ZNF579 (UniProt Q8NAF0)
inactive: [1] 0.05 | [2] -0.074 | [3] -0.025 | [5] 0.151 | [4] -0.147

ZNF691 (UniProt Q5VV52)
inactive: [1] 0.073 | [2] -0.128 | [3] 0.112 | [5] 0.079 | [4] 0.042

ZNF706 (UniProt Q9Y5V0)
inactive: [1] -0.003 | [2] -0.098 | [3] -0.057 | [5] 0.038 | [4] 0

ZNF428 (UniProt M0QXZ5)
inactive: [1] -0.034 | [2] 0.042 | [3] 0.019 | [5] -0.009 | [4] 0.092

ZNF830 (UniProt Q96NB3)
inactive: [1] 0.024 | [2] -0.017 | [3] 0.006 | [5] -0.027 | [4] 0.049

ZYG11B (UniProt Q9C0D3)
inactive: [1] 0.057 | [2] 0.086 | [3] 0.011 | [5] -0.02 | [4] 0.044

ZSWIM7 (UniProt Q19AV6)
inactive: [1] 0.051 | [3] -0.352 | [5] 0.286

AARSD1 isoform 3 (UniProt Q9BTE6)
inactive: [6] 0.035 | [7] 0.03 | [8] 0.03 | [9] -0.002 | [10] 0.063

ZNF318 (UniProt Q5VUA4)
inactive: [2] -0.137 | [4] -0.079

ACADSB (UniProt P45954)
inactive: [6] 0.035 | [7] -0.051 | [8] -0.053 | [9] 0.09 | [10] 0.016

ZNF581 (UniProt Q9P0T4)
inactive: [2] 0.205 | [4] -0.047

ABCB7 isoform 2 (UniProt O75027)
inactive: [6] -0.08 | [7] 0.065 | [8] 0.007 | [9] 0.022 | [10] 0.044

ABCC5 (UniProt O15440)
inactive: [6] 0.087 | [7] -0.052 | [8] -0.108 | [9] -0.099 | [10] 0.115

ZNF316 (UniProt A6NFI3)
inactive: [1] 0.066 | [2] 0.024 | [4] -0.074

ZNF512 (UniProt Q96ME7)
inactive: [2] -0.117 | [4] -0.363

Two entries drawn at random from the list so far, as already listed:
ZNF318 (UniProt Q5VUA4)
inactive: [2] -0.137 | [4] -0.079

ZNF579 (UniProt Q8NAF0)
inactive: [1] 0.05 | [2] -0.074 | [3] -0.025 | [5] 0.151 | [4] -0.147

Further entries

ZNF618 isoform 2 (UniProt Q5T7W0)
inactive: [1] -0.015 | [3] -0.198 | [5] -0.005

A0A096LPI6, A0A096LPI6
inactive: [6] -0.012 | [7] 0.037 | [8] -0.008 | [9] -0.019 | [10] 0.014

ACHE isoform 2 (UniProt P22303)
inactive: [11] -0.005 | [6] 0.122 | [12] -0.028 | [13] -0.22 | [14] 0.071 | [7] -0.073 | [15] 0.234 | [16] 0.049 | [17] 0.038 | [18] 0.185 | [19] 0.072 | [20] 0.02 | [21] -0.255 | [22] 0.144 | [23] 0.051 | [24] 0.085 | [25] 0.039 | [26] 0.106 | [27] -0.017 | [28] -0.123 | [29] -0.153
